Test [1] addresses GST-PTP1B/C215S (Homo sapiens, UniProt P18031, C215S). The test can be described thus: ELISA-based PTP1B ligand screening: displacement of GST-PTP1B/C215S from biotinylated DADEpYL-NH2.
Test [2] concerns the target PTP1B/C215S (Homo sapiens, UniProt P18031, C215S). The test can be described thus: Equilibrium dialysis determination of Kd. The note with it: pH 7.0 and 4° C. For orientation: In equilibrium dialysis only unbound substance equilibrates across the membrane.

Amino acid sequences for entries named in this document (tags omitted). Residues count along the entry.
UniProt P18031, 1-321 C215S limits assumed: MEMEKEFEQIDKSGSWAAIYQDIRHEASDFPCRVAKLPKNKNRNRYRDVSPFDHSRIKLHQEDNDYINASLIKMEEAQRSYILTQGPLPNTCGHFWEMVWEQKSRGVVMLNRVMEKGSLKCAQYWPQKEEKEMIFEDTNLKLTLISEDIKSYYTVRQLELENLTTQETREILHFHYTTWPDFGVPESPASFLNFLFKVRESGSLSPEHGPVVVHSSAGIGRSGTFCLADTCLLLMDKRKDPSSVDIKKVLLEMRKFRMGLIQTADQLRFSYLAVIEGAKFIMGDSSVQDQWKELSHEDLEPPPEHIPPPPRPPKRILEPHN

We go through one compound from patent US20040191926A1 (priority 2001, published 2004).

Structures were worked out from names or drawings and are uncertain.

As for `NC(=O)[C@H](Cc1ccc(OP(=O)(O)O)cc1)NC(=O)[C@H](CC(=O)O)NC(=O)Cc1ccc(OP(=O)(O)O)cc1`, in test [1] (from Table 1 ratio), the “affinity determined by the ELISA assay” value worked out at 30 nM. Moreover, the “effectiveness as PTP1B ligand in ELISA screen” value in test [1] (library members at 250 nM) is on record as “most effective”. Also, the Kd in test [2] turned out to be 32 nM.

What is called Kd is the equilibrium constant for the complex coming apart.
